Assay results: the supplement of paper PMC10849652
This is one part of the list.

By UniProt entry, the sequences of proteins in these tests, tags left out. Where a name states a change or a piece, a line headed by the entry shows the natural chain unless it says otherwise.
UniProt Q99426: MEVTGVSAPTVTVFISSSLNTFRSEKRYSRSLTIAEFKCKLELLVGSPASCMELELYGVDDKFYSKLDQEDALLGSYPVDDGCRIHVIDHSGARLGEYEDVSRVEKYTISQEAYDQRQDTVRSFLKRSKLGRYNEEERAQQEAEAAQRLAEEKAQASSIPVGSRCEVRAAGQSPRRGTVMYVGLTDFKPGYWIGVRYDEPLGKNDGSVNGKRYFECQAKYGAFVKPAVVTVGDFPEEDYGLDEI
UniProt Q86W42: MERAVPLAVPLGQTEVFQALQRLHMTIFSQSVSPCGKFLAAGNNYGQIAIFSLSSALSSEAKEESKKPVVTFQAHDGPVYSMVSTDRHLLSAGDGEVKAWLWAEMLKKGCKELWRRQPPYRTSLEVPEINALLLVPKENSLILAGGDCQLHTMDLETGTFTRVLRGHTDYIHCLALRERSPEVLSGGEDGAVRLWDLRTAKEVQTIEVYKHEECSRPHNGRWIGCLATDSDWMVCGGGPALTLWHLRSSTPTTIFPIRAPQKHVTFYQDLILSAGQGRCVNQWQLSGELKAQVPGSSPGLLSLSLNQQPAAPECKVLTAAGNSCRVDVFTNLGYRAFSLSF
UniProt P01137, whole entry, looked up: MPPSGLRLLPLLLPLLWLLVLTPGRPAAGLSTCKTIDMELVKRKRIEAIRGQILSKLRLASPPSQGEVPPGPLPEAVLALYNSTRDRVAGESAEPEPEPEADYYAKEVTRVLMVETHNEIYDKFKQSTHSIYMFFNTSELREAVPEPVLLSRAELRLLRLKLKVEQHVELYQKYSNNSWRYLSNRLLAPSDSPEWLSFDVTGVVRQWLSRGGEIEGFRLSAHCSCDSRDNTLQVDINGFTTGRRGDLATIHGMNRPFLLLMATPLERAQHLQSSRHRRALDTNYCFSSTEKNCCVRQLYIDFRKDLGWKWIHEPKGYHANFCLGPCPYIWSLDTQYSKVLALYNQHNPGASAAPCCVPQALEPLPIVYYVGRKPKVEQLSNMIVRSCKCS
UniProt P21980: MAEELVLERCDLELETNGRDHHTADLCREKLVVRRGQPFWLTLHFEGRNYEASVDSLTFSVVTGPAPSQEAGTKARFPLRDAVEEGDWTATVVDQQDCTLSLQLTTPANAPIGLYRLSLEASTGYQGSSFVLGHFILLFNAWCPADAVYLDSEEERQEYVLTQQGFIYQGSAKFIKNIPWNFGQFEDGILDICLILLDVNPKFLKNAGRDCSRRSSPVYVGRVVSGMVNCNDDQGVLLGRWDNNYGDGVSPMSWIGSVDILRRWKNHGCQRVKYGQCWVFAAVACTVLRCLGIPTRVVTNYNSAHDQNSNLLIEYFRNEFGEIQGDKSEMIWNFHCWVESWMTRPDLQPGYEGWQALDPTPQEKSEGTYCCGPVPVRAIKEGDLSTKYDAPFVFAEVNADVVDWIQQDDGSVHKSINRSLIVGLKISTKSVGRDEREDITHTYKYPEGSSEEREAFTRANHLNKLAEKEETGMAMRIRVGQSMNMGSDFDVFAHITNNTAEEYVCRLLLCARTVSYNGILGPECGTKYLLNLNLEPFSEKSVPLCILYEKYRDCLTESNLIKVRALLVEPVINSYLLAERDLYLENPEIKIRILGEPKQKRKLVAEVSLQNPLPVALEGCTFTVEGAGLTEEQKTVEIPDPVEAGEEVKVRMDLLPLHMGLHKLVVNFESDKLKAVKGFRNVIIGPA
UniProt Q9NPL8: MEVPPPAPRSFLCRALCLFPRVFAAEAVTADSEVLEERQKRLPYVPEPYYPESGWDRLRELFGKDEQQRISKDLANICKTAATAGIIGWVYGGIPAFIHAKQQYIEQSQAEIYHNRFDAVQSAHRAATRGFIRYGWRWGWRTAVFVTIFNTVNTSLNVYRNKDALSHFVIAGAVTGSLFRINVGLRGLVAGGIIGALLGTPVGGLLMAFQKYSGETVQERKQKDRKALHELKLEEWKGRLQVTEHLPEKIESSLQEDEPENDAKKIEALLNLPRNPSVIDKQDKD
UniProt P17987, whole entry, looked up: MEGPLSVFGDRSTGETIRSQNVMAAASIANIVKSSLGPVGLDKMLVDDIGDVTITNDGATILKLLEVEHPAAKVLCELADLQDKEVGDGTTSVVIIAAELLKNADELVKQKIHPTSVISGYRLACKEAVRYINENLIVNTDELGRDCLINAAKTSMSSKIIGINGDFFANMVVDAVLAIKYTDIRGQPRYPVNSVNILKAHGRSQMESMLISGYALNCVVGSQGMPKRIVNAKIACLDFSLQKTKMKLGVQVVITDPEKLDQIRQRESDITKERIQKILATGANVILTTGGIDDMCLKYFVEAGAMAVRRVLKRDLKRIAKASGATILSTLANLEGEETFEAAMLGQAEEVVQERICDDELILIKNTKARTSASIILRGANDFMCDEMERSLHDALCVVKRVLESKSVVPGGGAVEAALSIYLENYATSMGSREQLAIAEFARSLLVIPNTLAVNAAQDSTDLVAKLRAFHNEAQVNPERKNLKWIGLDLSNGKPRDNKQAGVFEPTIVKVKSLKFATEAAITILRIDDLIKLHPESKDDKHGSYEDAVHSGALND
UniProt Q9Y5J9: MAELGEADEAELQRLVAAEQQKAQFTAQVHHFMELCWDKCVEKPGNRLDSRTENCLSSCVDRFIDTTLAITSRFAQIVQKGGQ
UniProt Q96CP7: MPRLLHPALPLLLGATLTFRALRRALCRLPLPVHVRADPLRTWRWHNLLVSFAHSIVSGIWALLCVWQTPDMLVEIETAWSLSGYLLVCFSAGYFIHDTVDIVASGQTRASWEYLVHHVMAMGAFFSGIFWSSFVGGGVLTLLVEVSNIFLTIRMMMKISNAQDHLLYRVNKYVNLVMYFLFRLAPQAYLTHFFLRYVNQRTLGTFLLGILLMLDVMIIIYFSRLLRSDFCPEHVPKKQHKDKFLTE
UniProt P07996: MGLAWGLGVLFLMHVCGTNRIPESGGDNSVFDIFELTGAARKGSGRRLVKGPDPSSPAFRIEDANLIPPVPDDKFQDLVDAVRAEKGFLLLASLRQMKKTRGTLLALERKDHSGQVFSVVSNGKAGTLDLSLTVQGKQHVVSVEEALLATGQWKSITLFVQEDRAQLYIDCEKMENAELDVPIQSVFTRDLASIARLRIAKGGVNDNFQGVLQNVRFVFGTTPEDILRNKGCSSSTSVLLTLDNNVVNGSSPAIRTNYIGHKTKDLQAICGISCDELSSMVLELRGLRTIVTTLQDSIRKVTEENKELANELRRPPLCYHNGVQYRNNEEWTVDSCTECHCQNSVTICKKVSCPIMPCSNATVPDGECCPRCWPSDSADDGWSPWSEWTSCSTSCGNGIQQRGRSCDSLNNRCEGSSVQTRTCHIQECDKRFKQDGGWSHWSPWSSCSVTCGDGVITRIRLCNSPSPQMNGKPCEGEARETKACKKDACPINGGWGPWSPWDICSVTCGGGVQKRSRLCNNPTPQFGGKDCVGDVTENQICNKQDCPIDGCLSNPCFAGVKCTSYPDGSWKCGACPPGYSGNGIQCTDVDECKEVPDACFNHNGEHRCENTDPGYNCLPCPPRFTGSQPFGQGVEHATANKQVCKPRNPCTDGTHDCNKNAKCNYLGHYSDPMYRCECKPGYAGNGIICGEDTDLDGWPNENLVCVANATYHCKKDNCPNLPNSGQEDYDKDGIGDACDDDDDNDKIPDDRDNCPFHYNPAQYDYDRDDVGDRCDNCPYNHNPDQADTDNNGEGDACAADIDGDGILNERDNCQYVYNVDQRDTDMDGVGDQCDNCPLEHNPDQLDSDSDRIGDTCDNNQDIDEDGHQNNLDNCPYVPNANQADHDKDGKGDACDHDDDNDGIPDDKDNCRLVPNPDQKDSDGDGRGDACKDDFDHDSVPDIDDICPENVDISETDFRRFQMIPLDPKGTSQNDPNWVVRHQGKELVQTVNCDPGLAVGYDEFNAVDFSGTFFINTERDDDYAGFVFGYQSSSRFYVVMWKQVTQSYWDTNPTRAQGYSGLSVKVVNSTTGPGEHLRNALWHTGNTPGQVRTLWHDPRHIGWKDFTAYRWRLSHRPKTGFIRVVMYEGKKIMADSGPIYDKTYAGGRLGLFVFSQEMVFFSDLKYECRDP
UniProt Q9Y4C2: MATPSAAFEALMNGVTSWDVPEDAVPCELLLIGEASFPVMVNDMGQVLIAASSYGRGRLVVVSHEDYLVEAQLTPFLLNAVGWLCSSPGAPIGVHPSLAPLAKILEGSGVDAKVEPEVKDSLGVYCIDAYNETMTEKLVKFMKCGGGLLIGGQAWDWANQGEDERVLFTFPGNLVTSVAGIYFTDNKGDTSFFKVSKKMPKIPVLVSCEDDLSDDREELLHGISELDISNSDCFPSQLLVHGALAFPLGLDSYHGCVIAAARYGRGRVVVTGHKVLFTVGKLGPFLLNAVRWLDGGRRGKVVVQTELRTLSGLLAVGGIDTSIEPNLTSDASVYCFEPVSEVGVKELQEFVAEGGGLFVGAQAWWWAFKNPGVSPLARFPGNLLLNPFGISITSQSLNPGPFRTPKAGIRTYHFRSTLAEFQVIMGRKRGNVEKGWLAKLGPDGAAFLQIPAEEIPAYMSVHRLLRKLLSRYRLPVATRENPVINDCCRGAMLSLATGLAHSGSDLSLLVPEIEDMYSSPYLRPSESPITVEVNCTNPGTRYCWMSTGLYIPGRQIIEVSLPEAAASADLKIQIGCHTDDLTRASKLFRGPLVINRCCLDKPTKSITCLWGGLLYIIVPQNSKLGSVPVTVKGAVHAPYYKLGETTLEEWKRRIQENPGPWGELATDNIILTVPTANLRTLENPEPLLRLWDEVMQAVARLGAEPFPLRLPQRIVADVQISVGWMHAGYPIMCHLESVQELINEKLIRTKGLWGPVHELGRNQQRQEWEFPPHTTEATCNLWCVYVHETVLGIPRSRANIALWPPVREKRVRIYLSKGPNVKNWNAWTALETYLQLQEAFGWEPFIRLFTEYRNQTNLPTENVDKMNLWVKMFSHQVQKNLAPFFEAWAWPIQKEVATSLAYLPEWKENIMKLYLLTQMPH
UniProt P29401: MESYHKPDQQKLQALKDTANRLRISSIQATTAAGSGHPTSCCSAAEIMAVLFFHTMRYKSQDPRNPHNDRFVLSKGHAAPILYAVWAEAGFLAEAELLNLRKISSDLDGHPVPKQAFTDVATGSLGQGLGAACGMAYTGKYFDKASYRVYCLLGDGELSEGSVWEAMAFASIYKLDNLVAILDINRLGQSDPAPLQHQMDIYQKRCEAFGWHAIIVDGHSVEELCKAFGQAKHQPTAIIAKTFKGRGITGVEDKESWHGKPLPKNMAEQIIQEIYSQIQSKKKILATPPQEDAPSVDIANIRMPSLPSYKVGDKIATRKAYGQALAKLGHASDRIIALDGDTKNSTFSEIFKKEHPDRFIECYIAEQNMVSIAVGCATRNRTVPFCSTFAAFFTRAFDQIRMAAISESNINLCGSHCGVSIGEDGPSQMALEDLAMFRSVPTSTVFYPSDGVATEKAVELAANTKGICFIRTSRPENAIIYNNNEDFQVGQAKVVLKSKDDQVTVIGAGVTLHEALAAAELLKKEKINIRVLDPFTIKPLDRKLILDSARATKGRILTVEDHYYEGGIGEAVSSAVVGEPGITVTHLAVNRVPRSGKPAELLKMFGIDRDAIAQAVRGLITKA
UniProt Q5T1C6: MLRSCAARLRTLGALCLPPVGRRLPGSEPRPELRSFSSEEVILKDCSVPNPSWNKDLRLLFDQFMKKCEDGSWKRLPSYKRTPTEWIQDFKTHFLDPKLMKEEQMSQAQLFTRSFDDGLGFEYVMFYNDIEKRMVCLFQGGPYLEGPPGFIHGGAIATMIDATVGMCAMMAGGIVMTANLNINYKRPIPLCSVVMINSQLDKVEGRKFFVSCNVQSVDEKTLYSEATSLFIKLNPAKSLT
UniProt Q9NWX6: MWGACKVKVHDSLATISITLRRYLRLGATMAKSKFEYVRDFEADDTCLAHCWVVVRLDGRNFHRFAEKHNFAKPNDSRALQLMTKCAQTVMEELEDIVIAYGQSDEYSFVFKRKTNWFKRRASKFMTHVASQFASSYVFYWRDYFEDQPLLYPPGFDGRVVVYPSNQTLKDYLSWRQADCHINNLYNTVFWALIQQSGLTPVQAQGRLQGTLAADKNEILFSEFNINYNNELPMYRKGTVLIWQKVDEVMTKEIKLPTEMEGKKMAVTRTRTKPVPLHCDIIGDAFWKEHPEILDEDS
UniProt O43493: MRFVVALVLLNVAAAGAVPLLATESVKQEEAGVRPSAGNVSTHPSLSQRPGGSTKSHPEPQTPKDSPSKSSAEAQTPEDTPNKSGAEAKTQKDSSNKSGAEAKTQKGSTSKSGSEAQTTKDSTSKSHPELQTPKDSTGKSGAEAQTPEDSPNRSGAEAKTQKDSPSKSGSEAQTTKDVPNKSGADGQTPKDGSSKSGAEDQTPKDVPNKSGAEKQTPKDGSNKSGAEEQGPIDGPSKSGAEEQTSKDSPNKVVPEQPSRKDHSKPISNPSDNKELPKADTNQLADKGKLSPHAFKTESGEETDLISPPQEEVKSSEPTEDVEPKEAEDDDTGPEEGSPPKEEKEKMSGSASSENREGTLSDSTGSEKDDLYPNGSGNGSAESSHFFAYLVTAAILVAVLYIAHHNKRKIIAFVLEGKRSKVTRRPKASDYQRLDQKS

Columns and labels:
Assay in all cases: log2 fold change, soluble protein after heating vs DMSO (PISA); higher = thermal stabilisation; K562 cells, 10 uM, 30 min; active = over 0.2 and 3.5 SD of the protein, either way, in both replicates (recomputed)
[1] = compound: CS(=O)(=O)c1ccc(-c2cnc(N)c(C(=O)Nc3ccccc3)n2)cc1
Method in brief: (§1)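 Values are thermal stability changes relative to control samples and are taken from duplicates. They are stated as log2 fold changes. Before quantification by TMTpro 16plex LC-MS/MS with equalised channel sums, K562 cells at 2×10^6 cells/mL were treated with 10 μM compound for 30 min, heated in aliquots for 3 min across 48°C-58°C, pooled, extracted in PBS with 0.5% NP-40 at 4°C, and centrifuged at 21,000xg for 90 min to give the soluble supernatant.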

[2] = compound: C[C@@H](Oc1cc(-c2cnn(C3CCNCC3)c2)cnc1N)c1c(Cl)ccc(F)c1Cl [crizotinib]
Method in brief: as §1

[3] = compound: C[C@@H]1COCCN1C2=NC(=NC(=C2)C3(CC3)S(=O)(=O)C)C4=C5C=CNC5=CC=C4
Method in brief: as §1

[4] = compound: C[C@H](C1=CC=C(C=C1)C(=O)NC2=C3C=CNC3=NC=C2)N
Method in brief: as §1

[5] = compound: C[C@H](Nc1ncnc2nc[nH]c12)c1cc2cccc(Cl)c2c(=O)n1-c1ccccc1 [duvelisib]
Method in brief: as §1

[6] = compound: Cc1cc(Nc2cc(CN3CCOCC3)c3nc(C)c(Cc4ccc(Cl)cc4F)n3n2)n[nH]1 [gandotinib]
Method in brief: as §1

[7] = compound: Cc1cc(Nc2cc(N3CCN(C)CC3)nc(Sc3ccc(NC(=O)C4CC4)cc3)n2)n[nH]1 [tozasertib]
Method in brief: as §1

[8] = compound: Cc1cc(SCc2sc(-c3ccc(C(F)(F)F)cc3)nc2C)ccc1OCC(=O)O
Method in brief: as §1

[9] = compound: Cc1ccc(-n2nc(C(C)(C)C)cc2NC(=O)Nc2ccc(OCCN3CCOCC3)c3ccccc23)cc1 [doramapimod]
Method in brief: as §1

[10] = compound: Cc1ccc(C(=O)N(CCCN)[C@@H](c2nc3cc(Cl)ccc3c(=O)n2Cc2ccccc2)C(C)C)cc1 [ispinesib]
Method in brief: as §1

[11] = compound: Cc1ccc(NC(=O)c2ccc(CN3CC[C@H](N(C)C)C3)c(C(F)(F)F)c2)cc1Nc1nccc(-c2cncnc2)n1 [bafetinib]
Method in brief: as §1

[12] = compound: Cc1cccc(CC(=O)N2CCc3c2ccc(-c2cn(C)c4ncnc(N)c24)c3F)n1
Method in brief: as §1

[13] = compound: Cc1cn(-c2cc(NC(=O)c3ccc(C)c(Nc4nccc(-c5cccnc5)n4)c3)cc(C(F)(F)F)c2)cn1 [nilotinib]
Method in brief: as §1

[14] = compound: Cc1nc(Nc2n[nH]c3c2CN(C(=O)N[C@H](CN(C)C)c2ccccc2)C3(C)C)c2sccc2n1
Method in brief: as §1

[15] = compound: Cc1nc(Nc2ncc(C(=O)Nc3c(C)cccc3Cl)s2)cc(N2CCN(CCO)CC2)n1 [dasatinib]
Method in brief: as §1

[16] = compound: Cc1ncc(-c2ccnc(Nc3ccc(S(C)(=O)=O)cc3)n2)n1C(C)C
Method in brief: as §1

[17] = compound: Cn1cc(-c2ccc3c(c2)CCN3C(=O)Cc2cccc(C(F)(F)F)c2)c2c(N)ncnc21
Method in brief: as §1

[18] = compound: Cn1cc(-c2ccc3nnc(C(F)(F)c4ccc5ncccc5c4)n3n2)cn1
Method in brief: as §1

[19] = compound: Cn1cncc1[C@@](N)(c1ccc(Cl)cc1)c1ccc2c(c1)c(-c1cccc(Cl)c1)cc(=O)n2C [tipifarnib]
Method in brief: as §1

[20] = compound: FC(F)(F)c1ccc(/C=C/c2nc(COc3ccc(CCCCn4ccnn4)cc3)co2)cc1 [mubritinib]
Method in brief: as §1

Measured: log2 fold change

TBCB (UniProt Q99426)
inactive: [1] 0.02 | [2] 0.044 | [3] 0.05 | [4] -0.048 | [5] 0.013 | [6] -0.039 | [7] 0.043 | [8] 0.04 | [9] -0.033 | [10] -0.014 | [11] -0.074 | [12] 0.01 | [13] -0.003 | [14] -0.098 | [15] -0.069 | [16] -0.051 | [17] 0 | [18] 0.018 | [19] -0.025 | [20] 0.07

TBL1XR1 (UniProt Q9BZK7)
inactive: [1] -0.001 | [2] 0.038 | [3] 0.068 | [4] -0.019 | [5] -0.011 | [6] -0.018 | [7] 0.011 | [8] 0.002 | [9] 0.015 | [10] 0.07 | [11] 0.048 | [12] 0.063 | [13] -0.009 | [14] -0.006 | [15] 0.013 | [16] -0.011 | [17] 0.007 | [18] 0.016 | [19] -0.033 | [20] 0.006

THOC6 (UniProt Q86W42)
inactive: [1] 0.041 | [2] 0.022 | [3] 0.02 | [4] 0.035 | [5] 0.023 | [6] 0.005 | [7] 0.018 | [8] -0.018 | [9] 0.033 | [10] 0.052 | [11] -0.017 | [12] -0.025 | [13] -0.007 | [14] -0.034 | [15] 0.014 | [16] -0.033 | [17] 0.055 | [18] -0.076 | [19] -0.009 | [20] -0.012

TGFB1 (UniProt P01137)
inactive: [1] -0.037 | [2] 0.091 | [3] 0.005 | [4] -0.01 | [5] 0 | [6] 0.016 | [7] 0.003 | [8] -0.001 | [9] 0.002 | [10] 0.056 | [11] -0.031 | [12] -0.035 | [13] 0.002 | [14] 0.028 | [15] 0.029 | [16] -0.019 | [17] 0.011 | [18] -0.022 | [19] 0.011 | [20] 0.016

TGM2 (UniProt P21980)
inactive: [1] 0.042 | [2] -0.012 | [3] 0.059 | [4] -0.048 | [5] 0.022 | [6] -0.026 | [7] 0.008 | [8] -0.025 | [9] -0.037 | [10] 0.019 | [11] -0.055 | [12] 0.032 | [13] -0.011 | [14] -0.033 | [15] -0.029 | [16] -0.006 | [17] 0.035 | [18] -0.014 | [19] -0.023 | [20] 0.005

TIMMDC1 (UniProt Q9NPL8)
inactive: [1] 0.002 | [2] 0.064 | [3] 0.016 | [4] 0.017 | [5] -0.025 | [6] 0.03 | [7] -0.021 | [8] -0.07 | [9] -0.063 | [10] 0.08 | [11] -0.024 | [12] -0.071 | [13] 0.059 | [14] 0.012 | [15] 0.103 | [16] -0.007 | [17] -0.001 | [18] 0.053 | [19] 0.043 | [20] 0.011

TCP1 (UniProt P17987)
inactive: [1] -0.006 | [2] -0.004 | [3] 0.006 | [4] -0.022 | [5] 0.012 | [6] -0.012 | [7] 0.005 | [8] 0.038 | [9] -0.009 | [10] -0.03 | [11] -0.002 | [12] 0.035 | [13] -0.068 | [14] 0.026 | [15] -0.008 | [16] 0.003 | [17] 0.009 | [18] 0.003 | [19] -0.016 | [20] -0.007

TIMM8B (UniProt Q9Y5J9)
inactive: [1] -0.162 | [2] 0.109 | [3] 0.059 | [4] -0.174 | [5] 0.262 | [6] 0.053 | [7] 0.067 | [8] -0.009 | [9] -0.012 | [10] 0.214 | [11] -0.119 | [12] -0.089 | [13] -0.005 | [14] -0.004 | [15] 0.163 | [16] -0.041 | [17] 0.181 | [18] 0.142 | [19] 0.018 | [20] 0.019

TLCD1 (UniProt Q96CP7)
inactive: [1] 0.014 | [2] 0.005 | [3] -0.073 | [4] -0.002 | [5] -0.024 | [6] 0.054 | [7] -0.082 | [8] -0.297 | [9] 0.031 | [10] -0.211 | [11] -0.019 | [12] -0.005 | [13] -0.021 | [14] 0.052 | [15] 0.043 | [16] 0.054 | [17] 0.017 | [18] -0.098 | [19] 0.143 | [20] 0.019

THBS1 (UniProt P07996)
inactive: [1] -0.069 | [2] -0.024 | [3] -0.072 | [4] 0.079 | [5] -0.107 | [6] -0.1 | [7] -0.032 | [8] -0.117 | [9] -0.04 | [10] -0.121 | [11] -0.29 | [12] -0.071 | [13] 0.042 | [14] 0.019 | [15] 0.022 | [16] 0.243 | [17] 0.2 | [18] 0.005 | [19] 0.116 | [20] -0.156

TCAF1 (UniProt Q9Y4C2)
inactive: [1] 0.079 | [2] -0.109 | [3] 0.001 | [4] 0.141 | [5] -0.045 | [6] -0.015 | [7] -0.036 | [8] 0.039 | [9] 0.055 | [10] -0.073 | [11] -0.035 | [12] 0.016 | [13] -0.037 | [14] -0.016 | [15] -0.119 | [16] -0.042 | [17] -0.057 | [18] -0.038 | [19] 0.022 | [20] 0.024

TKT isoform 2 (UniProt P29401)
inactive: [1] -0.012 | [2] 0.001 | [3] 0.015 | [4] -0.089 | [5] 0.025 | [6] -0.002 | [7] -0.004 | [8] -0.008 | [9] 0.003 | [10] -0.027 | [11] -0.013 | [12] 0.012 | [13] 0.037 | [14] -0.01 | [15] 0.031 | [16] 0.002 | [17] 0.004 | [18] 0.007 | [19] -0.014 | [20] 0.017

THEM4 (UniProt Q5T1C6)
inactive: [1] 0.045 | [2] 0.07 | [3] 0.022 | [4] -0.082 | [5] -0.007 | [6] 0.033 | [7] -0.044 | [8] -0.05 | [9] -0.075 | [10] 0.054 | [11] -0.041 | [12] -0.028 | [13] -0.005 | [14] -0.007 | [15] 0.06 | [16] -0.012 | [17] 0.043 | [18] 0.055 | [19] 0.059 | [20] 0.018

TIMM17B (UniProt O60830)
inactive: [1] 0.018 | [2] 0.047 | [3] -0.025 | [4] -0.025 | [5] 0.183 | [6] 0.04 | [7] -0.044 | [8] -0.054 | [9] 0.014 | [10] -0.045 | [11] -0.05 | [12] 0 | [13] 0.021 | [14] -0.085 | [15] 0.026 | [16] -0.003 | [17] -0.026 | [18] 0.059 | [19] 0.029 | [20] 0.039

THG1L (UniProt Q9NWX6)
inactive: [1] 0.018 | [2] 0.031 | [3] 0.048 | [4] -0.027 | [5] 0.015 | [6] -0.067 | [7] 0.001 | [8] -0.018 | [9] -0.013 | [10] 0.047 | [11] 0.016 | [12] 0.006 | [13] -0.035 | [14] 0.024 | [15] -0.009 | [16] 0.008 | [17] 0.06 | [18] 0.031 | [19] -0.011 | [20] 0.033

TGOLN2 isoform 7 (UniProt O43493)
inactive: [1] -0.018 | [2] 0.012 | [3] 0.028 | [4] -0.071 | [5] -0.008 | [6] 0.098 | [7] -0.052 | [8] -0.101 | [9] 0.072 | [10] -0.033 | [11] -0.021 | [12] -0.075 | [13] 0.07 | [14] 0 | [15] 0.081 | [16] 0.017 | [17] 0.012 | [18] 0.025 | [19] 0.014 | [20] -0.007

2 consecutive entries out of the list so far, for reference:
TIMM17B (UniProt O60830)
inactive: [1] 0.018 | [2] 0.047 | [3] -0.025 | [4] -0.025 | [5] 0.183 | [6] 0.04 | [7] -0.044 | [8] -0.054 | [9] 0.014 | [10] -0.045 | [11] -0.05 | [12] 0 | [13] 0.021 | [14] -0.085 | [15] 0.026 | [16] -0.003 | [17] -0.026 | [18] 0.059 | [19] 0.029 | [20] 0.039

THG1L (UniProt Q9NWX6)
inactive: [1] 0.018 | [2] 0.031 | [3] 0.048 | [4] -0.027 | [5] 0.015 | [6] -0.067 | [7] 0.001 | [8] -0.018 | [9] -0.013 | [10] 0.047 | [11] 0.016 | [12] 0.006 | [13] -0.035 | [14] 0.024 | [15] -0.009 | [16] 0.008 | [17] 0.06 | [18] 0.031 | [19] -0.011 | [20] 0.033
